PubChem BioAssay AID1259263 – Sanger Institute, 2017

- Purpose: 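Recheck kinase screen hits for synergy with three targeted cancer drugs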 (follow-up of hits)
- System: SW1463 human colorectal cancer cell line
- Reagent: single siRNA against human genes
- Conditions: anchor drugs BYL719 at 1 µM, cetuximab at 5 µg/ml or trametinib at 10 nM, or DMSO vehicle, added one day after siRNA transfection
- Detection: 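Viability relative to a non-targeting siRNA control, averaged over replicates, plus a synergy score contrasting measured with expected viability loss for knock-down and drug combined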
- Scale: synergy score with trametinib and synergy score with BYL719 and synergy score with cetuximab: higher = stronger synthetic lethal effect with the drug
- Call rule: 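Called active if the synergy score is above 0.10 for one or more of the three anchor drugs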
- Calls: active = synergy with at least one drug; inactive = no synergy with any drug
Here is one part, drawn at random, of 160 reagents. 101 of all reagents (63%) count as active. 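Drug doses chosen to kill few cells alone; each row is one siRNA, and a gene counts as confirmed only if two or more siRNAs show synergy.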 The numbers tell different reagents against one gene apart. Not all columns of the deposit are shown. Not given: the amount of reagent, the time to read-out.

| synergy score with trametinib | synergy score with BYL719 | synergy score with cetuximab | call | gene | siRNA no. |
| --- | --- | --- | --- | --- | --- |
| 0.143 | -0.0603 | -0.0799 | active | MPP3 (GeneID 4356) | 1 |
| 0.128 | -0.038 | 0.38 | active | MPP3 (GeneID 4356) | 2 |
| 0.3 | 0.195 | 0.0497 | active | MPP3 (GeneID 4356) | 3 |
| 0.208 | -0.175 | 0.0836 | active | MPP3 (GeneID 4356) | 4 |
| 0.00557 | 0.114 | 0.147 | – | BMPR2 (GeneID 659) | 1 |
| 0.332 | 0.157 | 0.122 | active | BMPR2 (GeneID 659) | 2 |
| 0.151 | -0.17 | -0.00317 | active | BMPR2 (GeneID 659) | 3 |
| -0.195 | 0.0288 | -0.175 | inactive | BMPR2 (GeneID 659) | 4 |
| 0.00918 | 0.099 | -0.125 | inactive | GTF2H1 (GeneID 2965) | 1 |
| 0.206 | 0.0288 | 0.0129 | active | GTF2H1 (GeneID 2965) | 2 |
| 0.378 | 0.543 | 0.0386 | active | GTF2H1 (GeneID 2965) | 3 |
| 0.288 | 0.197 | 0.126 | active | GTF2H1 (GeneID 2965) | 4 |
| 0.202 | -0.161 | 0.156 | active | MARK3 (GeneID 4140) | 1 |
| 0.0549 | -0.00799 | 0.0846 | inactive | MARK3 (GeneID 4140) | 2 |
| 0.216 | -0.225 | 0.00963 | active | MARK3 (GeneID 4140) | 3 |
| 0.207 | -0.176 | -0.0848 | active | MARK3 (GeneID 4140) | 4 |
| 0.054 | -0.242 | 0.0203 | inactive | GUCY2D (GeneID 3000) | 1 |
| 0.157 | 0.0764 | -0.0553 | active | GUCY2D (GeneID 3000) | 2 |
| -0.179 | -0.268 | -0.0702 | inactive | GUCY2D (GeneID 3000) | 3 |
| 0.0326 | -0.11 | -0.208 | inactive | GUCY2D (GeneID 3000) | 4 |
| 0.0262 | 0.000507 | -0.119 | inactive | BRAF (GeneID 673) | 1 |
| 0.413 | 0.214 | 0.235 | active | BRAF (GeneID 673) | 2 |
| 0.234 | 0.027 | -0.227 | active | BRAF (GeneID 673) | 3 |
| 0.162 | -0.0441 | -0.0801 | active | BRAF (GeneID 673) | 4 |

8 consecutive entries from above, for reference:
| synergy score with trametinib | synergy score with BYL719 | synergy score with cetuximab | call | gene | siRNA no. |
| --- | --- | --- | --- | --- | --- |
| 0.208 | -0.175 | 0.0836 | active | MPP3 (GeneID 4356) | 4 |
| 0.00557 | 0.114 | 0.147 | – | BMPR2 (GeneID 659) | 1 |
| 0.332 | 0.157 | 0.122 | active | BMPR2 (GeneID 659) | 2 |
| 0.151 | -0.17 | -0.00317 | active | BMPR2 (GeneID 659) | 3 |
| -0.195 | 0.0288 | -0.175 | inactive | BMPR2 (GeneID 659) | 4 |
| 0.00918 | 0.099 | -0.125 | inactive | GTF2H1 (GeneID 2965) | 1 |
| 0.206 | 0.0288 | 0.0129 | active | GTF2H1 (GeneID 2965) | 2 |
| 0.378 | 0.543 | 0.0386 | active | GTF2H1 (GeneID 2965) | 3 |

The list goes on.
| synergy score with trametinib | synergy score with BYL719 | synergy score with cetuximab | call | gene | siRNA no. |
| --- | --- | --- | --- | --- | --- |
| -0.0144 | -0.09 | -0.111 | inactive | CSNK2A2 (GeneID 1459) | 1 |
| -0.0932 | -0.283 | -0.0719 | inactive | CSNK2A2 (GeneID 1459) | 2 |
| 0.0339 | -0.0949 | -0.281 | inactive | CSNK2A2 (GeneID 1459) | 3 |
| 0.231 | -0.0249 | 0.0902 | active | CSNK2A2 (GeneID 1459) | 4 |
| 0.0214 | -0.35 | -0.207 | inactive | SYNCRIP (GeneID 10492) | 1 |
| 0.132 | 0.0102 | -0.00565 | active | SYNCRIP (GeneID 10492) | 2 |
| 0.18 | -0.564 | -0.201 | active | SYNCRIP (GeneID 10492) | 3 |
| 0.0408 | -0.265 | -0.369 | inactive | SYNCRIP (GeneID 10492) | 4 |
| 0.0679 | -0.239 | -0.133 | inactive | ACVR1 (GeneID 90) | 1 |
| -0.0422 | -0.404 | -0.242 | inactive | ACVR1 (GeneID 90) | 2 |
| 0.0767 | -0.176 | -0.0477 | inactive | ACVR1 (GeneID 90) | 3 |
| -0.18 | -0.177 | -0.188 | inactive | ACVR1 (GeneID 90) | 4 |
| 0.0828 | 0.155 | 0.0557 | – | SF3B1 (GeneID 23451) | 1 |
| 0.135 | -0.238 | -0.126 | active | SF3B1 (GeneID 23451) | 2 |
| 0.245 | 0.0757 | -0.185 | active | SF3B1 (GeneID 23451) | 3 |
| 0.0513 | -0.0453 | -0.161 | inactive | SF3B1 (GeneID 23451) | 4 |
| -0.0595 | 0.0374 | -0.0153 | inactive | RPS6KA4 (GeneID 8986) | 1 |
| 0.425 | 0.0076 | -0.0898 | active | RPS6KA4 (GeneID 8986) | 2 |
| 0.25 | 0.0147 | -0.0443 | active | RPS6KA4 (GeneID 8986) | 3 |
| 0.297 | -0.042 | -0.0915 | active | RPS6KA4 (GeneID 8986) | 4 |
| 0.207 | 0.16 | 0.0822 | active | HUNK (GeneID 30811) | 1 |
| 0.278 | 0.00479 | -0.0339 | active | HUNK (GeneID 30811) | 2 |
| 0.221 | 0.0978 | 0.178 | active | HUNK (GeneID 30811) | 3 |
| 0.17 | 0.0398 | 0.18 | active | HUNK (GeneID 30811) | 4 |
| -0.0624 | -0.152 | -0.212 | inactive | COASY (GeneID 80347) | 1 |
| 0.0412 | 0.0109 | -0.0389 | inactive | COASY (GeneID 80347) | 2 |
| 0.0322 | 0.0979 | -0.00843 | inactive | COASY (GeneID 80347) | 3 |
| 0.0213 | -0.114 | -0.132 | inactive | COASY (GeneID 80347) | 4 |
